Data as given in PubChem BioAssay AID652259 (Drosophila RNAi Screening Center, 2013).
Screen: 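Identify new Wingless signalling regulators in fly cells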 (primary screen). System: Drosophila clone 8 imaginal disc epithelial cells. Reagent: long dsRNA against Drosophila genes. Challenge: pathway stimulated by co-transfected Wingless expression plasmid. Measured: 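Firefly luciferase from a tcf-site Wingless reporter, measured alongside co-transfected Renilla luciferase that tracks transfection; pathway stimulated by a Wingless plasmid; the firefly-to-Renilla ratio is not deposited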. Reading the numbers: firefly reporter light: higher = more Wg reporter light, before normalisation; Renilla control light: higher = more transfected or surviving cells. Active means: 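a knock-down is a candidate when at least two out of four statistical tests show it departing from its plate mean; one test alone signals a weak candidate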. Calls: active = candidate regulator (raises or lowers reporter); inactive = not a candidate.
The deposit covers about 22,000 reagents; below is a random part of those that have a named target and a result. Of all reagents, 233 (1.1%) are marked active. 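Light values are raw, unnormalised plate reads; the ratio scores behind the reporter calls were not deposited.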 Entries without a mark were called inactive. Not given: the amount of reagent, the time to read-out, the dose of the treatment.

CG3222 [DRSC10355] showed firefly reporter light, replicate 1 = 5324; Renilla control light, replicate 1 = 2680. With knock-down of pst [DRSC11003] the results were firefly reporter light, replicate 1 = 2624; Renilla control light, replicate 1 = 956. With knock-down of drk [DRSC07606], the record shows firefly reporter light, replicate 1 = 17281; Renilla control light, replicate 1 = 3766. With knock-down of CG15673 [DRSC04263], the record shows firefly reporter light, replicate 1 = 3417; firefly reporter light, replicate 2 = 4953; Renilla control light, replicate 1 = 833; Renilla control light, replicate 2 = 1924. For CG5577 [DRSC10519], the entry reads firefly reporter light, replicate 1 = 4066; Renilla control light, replicate 1 = 1593. After knock-down of Argp [DRSC16510] the results were firefly reporter light, replicate 1 = 20480; Renilla control light, replicate 1 = 4714.

Sprn [DRSC10132] gave firefly reporter light, replicate 1 = 5724; Renilla control light, replicate 1 = 2644. With knock-down of CG3500 [DRSC04379], the screen gave firefly reporter light, replicate 1 = 2600; firefly reporter light, replicate 2 = 7109; Renilla control light, replicate 1 = 842; Renilla control light, replicate 2 = 1987. Depletion of Mst85C [DRSC16746] gave: firefly reporter light, replicate 1 = 12081; Renilla control light, replicate 1 = 4224. After knock-down of TpnC4 [DRSC04856], the record shows firefly reporter light, replicate 1 = 1776; firefly reporter light, replicate 2 = 5558; Renilla control light, replicate 1 = 544; Renilla control light, replicate 2 = 1964. Against elm [DRSC12309], the entry reads firefly reporter light, replicate 1 = 6859; Renilla control light, replicate 1 = 2185. For CG2854 [DRSC18595], the values are firefly reporter light, replicate 1 = 16043; Renilla control light, replicate 1 = 15521.

Already shown: 2 of the entries above.
Sprn [DRSC10132] — firefly reporter light, replicate 1: 5724; Renilla control light, replicate 1: 2644
CG3500 [DRSC04379] — firefly reporter light, replicate 1: 2600; firefly reporter light, replicate 2: 7109; Renilla control light, replicate 1: 842; Renilla control light, replicate 2: 1987
